Amino acid sequences for entries named in this document (tags omitted).
UniProt Q99873: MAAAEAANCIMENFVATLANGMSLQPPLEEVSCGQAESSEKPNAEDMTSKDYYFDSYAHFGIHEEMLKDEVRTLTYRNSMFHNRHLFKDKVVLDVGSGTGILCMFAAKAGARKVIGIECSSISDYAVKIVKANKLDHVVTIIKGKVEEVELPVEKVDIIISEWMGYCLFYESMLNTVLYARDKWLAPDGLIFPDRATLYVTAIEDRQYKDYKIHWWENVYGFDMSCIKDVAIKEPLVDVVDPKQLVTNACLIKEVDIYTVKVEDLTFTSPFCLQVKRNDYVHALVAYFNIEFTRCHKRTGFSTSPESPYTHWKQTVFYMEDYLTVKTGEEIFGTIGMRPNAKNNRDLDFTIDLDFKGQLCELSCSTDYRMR

In article PMC7205891:

Key:
Assay in all cases: co-IP; HEK293 cells expressing Flag-UBAP2L wild type or mutants; lysis in 0.3% CHAPS, 40 mM HEPES pH 7.4, 150 mM NaCl; IP with Flag antibody and protein G Sepharose, 4 °C; WB of endogenous proteins; no RNase A; with/without AS (500 μM, 1 h), stress recovery, PRMT1-siRNA, HA-PRMT1, Adox, UBAP2L knock-down; some lanes with EE (2 mM EDTA, 2.5 mM EGTA) or 5 mM MgCl2 in the lysis buffer
[1] = target: Flag-tagged UBAP2L with all Arg residues in the RGG domain mutated to Ala (human) (UniProt Q14157)
[2] = target: Flag-tagged UBAP2L with all Arg residues in the RGG domain mutated to Lys (human) (UniProt Q14157)
[3] = target: UBAP2L△UBA-R_(131–190)K (human) (UniProt Q14157)

binding [1]: no binding
binding [2]: no binding
binding [3]: no binding
Substance: protein arginine methyltransferase PRMT1, endogenous (from UniProt Q99873 1-371) (enzyme)

These are yes or no findings as the source states them, for the method shown. In cells and extracts the contact can be indirect.
